Only a part is listed here, and it is no random draw. At the low end of the ranking the order means little.

One test deals with T1, ELK3 (UniProt P41970).
T1 sequence: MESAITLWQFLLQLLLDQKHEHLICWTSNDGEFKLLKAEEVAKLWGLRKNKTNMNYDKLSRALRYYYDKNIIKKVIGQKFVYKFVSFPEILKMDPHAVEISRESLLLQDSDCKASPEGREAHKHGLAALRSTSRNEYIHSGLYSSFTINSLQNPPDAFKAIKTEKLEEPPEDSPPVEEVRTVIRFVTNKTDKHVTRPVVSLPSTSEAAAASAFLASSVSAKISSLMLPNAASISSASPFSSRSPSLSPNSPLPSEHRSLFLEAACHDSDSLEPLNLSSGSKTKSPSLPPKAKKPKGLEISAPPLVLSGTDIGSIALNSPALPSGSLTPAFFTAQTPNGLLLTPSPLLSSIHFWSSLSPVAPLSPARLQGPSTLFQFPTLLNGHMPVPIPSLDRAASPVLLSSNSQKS
In words: DAPPL (digital affinity profiling via proximity ligation, sequencing). To be noted: 10 mM Tris-HCl pH 7.5, 50 mM NaCl, 1 mM DTT, 4% glycerol, room temperature, 30 min; GST-TFs on glutathione beads, 16-mer random dsDNA library, 0.1% …; high values mean tight binding; double strand, one strand shown; scale: fold enrichment (6-mer frequency, TF over GST control).
As to TACGCG, the binding signal amounted to 1.28. Still for that read-out and setting: the figure for ACACCA is 0.89. Still for that read-out and setting: the figure for AGTACA is 1.31. The same measure, in the same setting: the figure for CAGACT is 0.892; for CGCTGC it is 1.16; for TATAAA it is 1.26.

For TGTTGA, the binding signal is 0.943.

CCCTTA showed a binding signal of 1.25. The same measure, in the same setting: the figure for TAGGTC is 1.08. With TCCGCG, the binding signal came to 1.14.

The next test has as its target T2, ETS2 (UniProt P15036).
T2 sequence: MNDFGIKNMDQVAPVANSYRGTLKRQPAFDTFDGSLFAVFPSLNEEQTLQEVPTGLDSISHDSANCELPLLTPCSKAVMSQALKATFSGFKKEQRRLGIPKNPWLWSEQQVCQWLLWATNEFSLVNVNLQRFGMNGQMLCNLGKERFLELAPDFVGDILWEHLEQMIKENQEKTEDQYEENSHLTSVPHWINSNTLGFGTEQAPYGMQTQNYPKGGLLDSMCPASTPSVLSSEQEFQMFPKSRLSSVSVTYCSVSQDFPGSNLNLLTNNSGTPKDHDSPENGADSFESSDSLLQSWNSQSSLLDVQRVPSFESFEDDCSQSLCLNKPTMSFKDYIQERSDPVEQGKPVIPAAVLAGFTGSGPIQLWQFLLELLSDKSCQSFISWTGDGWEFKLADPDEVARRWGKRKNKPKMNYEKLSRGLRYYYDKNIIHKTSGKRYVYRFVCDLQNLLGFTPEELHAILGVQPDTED
Described as above. To be noted: 10 mM Tris-HCl pH 7.5, 50 mM NaCl, 1 mM DTT, 4% glycerol, room temperature, 30 min; GST-TFs on glutathione beads, 16-mer random dsDNA library, 0.1% …; high values mean tight binding; double strand, one strand shown; scale: fold enrichment (6-mer frequency, TF over GST control).
TACGCG gave a binding signal of 1.14. Same read-out and setting: the figure for ACACCA is 0.976; for AGTACA it is 1.16. CAGACT had a binding signal of 0.99. Same read-out and setting: the figure for CGCTGC is 1.28; for TATAAA it is 1.27.

Regarding TGTTGA, the binding signal amounted to 1.11. CCCTTA showed a binding signal of 1.34. Same read-out and setting: the figure for TAGGTC is 0.99. TCCGCG: the binding signal amounted to 1.36.

Another test concerns the target T3, ETV3 (UniProt P41162-2).
T3 sequence: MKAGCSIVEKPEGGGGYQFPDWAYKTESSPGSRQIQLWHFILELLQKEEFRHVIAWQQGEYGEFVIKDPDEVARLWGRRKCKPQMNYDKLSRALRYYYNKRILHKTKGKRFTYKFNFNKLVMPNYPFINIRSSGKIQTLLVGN
The test is described as above. To be noted: 10 mM Tris-HCl pH 7.5, 50 mM NaCl, 1 mM DTT, 4% glycerol, room temperature, 30 min; GST-TFs on glutathione beads, 16-mer random dsDNA library, 0.1% …; high values mean tight binding; double strand, one strand shown; scale: fold enrichment (6-mer frequency, TF over GST control).
In the case of AATCTC, the binding signal was 1.2. Still for that read-out and setting: the figure for TGCGGA is 1.54; for TGATTA it is 1.08. The same measure, in the same setting: the figure for ATACTC is 1.33; for ATTTAA it is 1.13. On the same count and under the same terms, the figure for TGCAGC is 1.05; for CGTATA it is 1.18. Sequence TCAACT returned a binding signal of 1.31. Still for that read-out and setting: the figure for TGCCTT is 1.31; for GGATTT it is 1.21. Still for that read-out and setting: the figure for CCCCTG is 1.07. The same measure, in the same setting: the figure for CTTGGC is 1.12; for CCGGAC it is 1.6; for CTCACG it is 1.23.

As for GTGCAT, the binding signal worked out at 1. In turn, ATTCGC displayed a binding signal of 1.23. Same read-out and setting: the figure for GTTTTT is 1.34; for TGGCAT it is 1.23; for CTCTAT it is 1.08. Same read-out and setting: the figure for CTACAT is 1.44; for CCTCCA it is 1.24.

The sequence GCCCTA had a binding signal of 1.18. CCACAA registered a binding signal of 1.12. Still for that read-out and setting: the figure for ACTGGT is 1.06.

Sequence TGGGTT yielded a binding signal of 1.02. Still for that read-out and setting: the figure for CTCTCT is 1.68; for AAAATA it is 1.13; for GGAAGA it is 1.24. For the sequence TAGCAG, the binding signal is 0.992.

For the origin of these results see paper PMC7862700.
